Paper PMC11905051
No constants are given. Whether binding was seen depends on the method and setting. In cells and extracts the contact can be indirect. Some binding calls cover weakened binding; strength is not graded here.

The chains behind the UniProt entries cited, without tags or fusion partners.
UniProt Q96FV2: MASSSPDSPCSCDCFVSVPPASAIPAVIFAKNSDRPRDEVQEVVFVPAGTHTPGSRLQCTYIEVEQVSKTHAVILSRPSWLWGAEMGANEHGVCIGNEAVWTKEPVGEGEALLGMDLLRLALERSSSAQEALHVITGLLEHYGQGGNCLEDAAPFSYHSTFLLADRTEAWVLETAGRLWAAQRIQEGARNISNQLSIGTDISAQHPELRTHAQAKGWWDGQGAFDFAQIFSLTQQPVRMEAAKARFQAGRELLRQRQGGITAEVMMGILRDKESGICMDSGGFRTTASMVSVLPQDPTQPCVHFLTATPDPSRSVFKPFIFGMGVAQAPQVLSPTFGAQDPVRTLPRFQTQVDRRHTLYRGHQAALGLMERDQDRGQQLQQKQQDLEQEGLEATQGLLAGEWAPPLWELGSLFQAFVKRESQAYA
UniProt Q8NEZ4: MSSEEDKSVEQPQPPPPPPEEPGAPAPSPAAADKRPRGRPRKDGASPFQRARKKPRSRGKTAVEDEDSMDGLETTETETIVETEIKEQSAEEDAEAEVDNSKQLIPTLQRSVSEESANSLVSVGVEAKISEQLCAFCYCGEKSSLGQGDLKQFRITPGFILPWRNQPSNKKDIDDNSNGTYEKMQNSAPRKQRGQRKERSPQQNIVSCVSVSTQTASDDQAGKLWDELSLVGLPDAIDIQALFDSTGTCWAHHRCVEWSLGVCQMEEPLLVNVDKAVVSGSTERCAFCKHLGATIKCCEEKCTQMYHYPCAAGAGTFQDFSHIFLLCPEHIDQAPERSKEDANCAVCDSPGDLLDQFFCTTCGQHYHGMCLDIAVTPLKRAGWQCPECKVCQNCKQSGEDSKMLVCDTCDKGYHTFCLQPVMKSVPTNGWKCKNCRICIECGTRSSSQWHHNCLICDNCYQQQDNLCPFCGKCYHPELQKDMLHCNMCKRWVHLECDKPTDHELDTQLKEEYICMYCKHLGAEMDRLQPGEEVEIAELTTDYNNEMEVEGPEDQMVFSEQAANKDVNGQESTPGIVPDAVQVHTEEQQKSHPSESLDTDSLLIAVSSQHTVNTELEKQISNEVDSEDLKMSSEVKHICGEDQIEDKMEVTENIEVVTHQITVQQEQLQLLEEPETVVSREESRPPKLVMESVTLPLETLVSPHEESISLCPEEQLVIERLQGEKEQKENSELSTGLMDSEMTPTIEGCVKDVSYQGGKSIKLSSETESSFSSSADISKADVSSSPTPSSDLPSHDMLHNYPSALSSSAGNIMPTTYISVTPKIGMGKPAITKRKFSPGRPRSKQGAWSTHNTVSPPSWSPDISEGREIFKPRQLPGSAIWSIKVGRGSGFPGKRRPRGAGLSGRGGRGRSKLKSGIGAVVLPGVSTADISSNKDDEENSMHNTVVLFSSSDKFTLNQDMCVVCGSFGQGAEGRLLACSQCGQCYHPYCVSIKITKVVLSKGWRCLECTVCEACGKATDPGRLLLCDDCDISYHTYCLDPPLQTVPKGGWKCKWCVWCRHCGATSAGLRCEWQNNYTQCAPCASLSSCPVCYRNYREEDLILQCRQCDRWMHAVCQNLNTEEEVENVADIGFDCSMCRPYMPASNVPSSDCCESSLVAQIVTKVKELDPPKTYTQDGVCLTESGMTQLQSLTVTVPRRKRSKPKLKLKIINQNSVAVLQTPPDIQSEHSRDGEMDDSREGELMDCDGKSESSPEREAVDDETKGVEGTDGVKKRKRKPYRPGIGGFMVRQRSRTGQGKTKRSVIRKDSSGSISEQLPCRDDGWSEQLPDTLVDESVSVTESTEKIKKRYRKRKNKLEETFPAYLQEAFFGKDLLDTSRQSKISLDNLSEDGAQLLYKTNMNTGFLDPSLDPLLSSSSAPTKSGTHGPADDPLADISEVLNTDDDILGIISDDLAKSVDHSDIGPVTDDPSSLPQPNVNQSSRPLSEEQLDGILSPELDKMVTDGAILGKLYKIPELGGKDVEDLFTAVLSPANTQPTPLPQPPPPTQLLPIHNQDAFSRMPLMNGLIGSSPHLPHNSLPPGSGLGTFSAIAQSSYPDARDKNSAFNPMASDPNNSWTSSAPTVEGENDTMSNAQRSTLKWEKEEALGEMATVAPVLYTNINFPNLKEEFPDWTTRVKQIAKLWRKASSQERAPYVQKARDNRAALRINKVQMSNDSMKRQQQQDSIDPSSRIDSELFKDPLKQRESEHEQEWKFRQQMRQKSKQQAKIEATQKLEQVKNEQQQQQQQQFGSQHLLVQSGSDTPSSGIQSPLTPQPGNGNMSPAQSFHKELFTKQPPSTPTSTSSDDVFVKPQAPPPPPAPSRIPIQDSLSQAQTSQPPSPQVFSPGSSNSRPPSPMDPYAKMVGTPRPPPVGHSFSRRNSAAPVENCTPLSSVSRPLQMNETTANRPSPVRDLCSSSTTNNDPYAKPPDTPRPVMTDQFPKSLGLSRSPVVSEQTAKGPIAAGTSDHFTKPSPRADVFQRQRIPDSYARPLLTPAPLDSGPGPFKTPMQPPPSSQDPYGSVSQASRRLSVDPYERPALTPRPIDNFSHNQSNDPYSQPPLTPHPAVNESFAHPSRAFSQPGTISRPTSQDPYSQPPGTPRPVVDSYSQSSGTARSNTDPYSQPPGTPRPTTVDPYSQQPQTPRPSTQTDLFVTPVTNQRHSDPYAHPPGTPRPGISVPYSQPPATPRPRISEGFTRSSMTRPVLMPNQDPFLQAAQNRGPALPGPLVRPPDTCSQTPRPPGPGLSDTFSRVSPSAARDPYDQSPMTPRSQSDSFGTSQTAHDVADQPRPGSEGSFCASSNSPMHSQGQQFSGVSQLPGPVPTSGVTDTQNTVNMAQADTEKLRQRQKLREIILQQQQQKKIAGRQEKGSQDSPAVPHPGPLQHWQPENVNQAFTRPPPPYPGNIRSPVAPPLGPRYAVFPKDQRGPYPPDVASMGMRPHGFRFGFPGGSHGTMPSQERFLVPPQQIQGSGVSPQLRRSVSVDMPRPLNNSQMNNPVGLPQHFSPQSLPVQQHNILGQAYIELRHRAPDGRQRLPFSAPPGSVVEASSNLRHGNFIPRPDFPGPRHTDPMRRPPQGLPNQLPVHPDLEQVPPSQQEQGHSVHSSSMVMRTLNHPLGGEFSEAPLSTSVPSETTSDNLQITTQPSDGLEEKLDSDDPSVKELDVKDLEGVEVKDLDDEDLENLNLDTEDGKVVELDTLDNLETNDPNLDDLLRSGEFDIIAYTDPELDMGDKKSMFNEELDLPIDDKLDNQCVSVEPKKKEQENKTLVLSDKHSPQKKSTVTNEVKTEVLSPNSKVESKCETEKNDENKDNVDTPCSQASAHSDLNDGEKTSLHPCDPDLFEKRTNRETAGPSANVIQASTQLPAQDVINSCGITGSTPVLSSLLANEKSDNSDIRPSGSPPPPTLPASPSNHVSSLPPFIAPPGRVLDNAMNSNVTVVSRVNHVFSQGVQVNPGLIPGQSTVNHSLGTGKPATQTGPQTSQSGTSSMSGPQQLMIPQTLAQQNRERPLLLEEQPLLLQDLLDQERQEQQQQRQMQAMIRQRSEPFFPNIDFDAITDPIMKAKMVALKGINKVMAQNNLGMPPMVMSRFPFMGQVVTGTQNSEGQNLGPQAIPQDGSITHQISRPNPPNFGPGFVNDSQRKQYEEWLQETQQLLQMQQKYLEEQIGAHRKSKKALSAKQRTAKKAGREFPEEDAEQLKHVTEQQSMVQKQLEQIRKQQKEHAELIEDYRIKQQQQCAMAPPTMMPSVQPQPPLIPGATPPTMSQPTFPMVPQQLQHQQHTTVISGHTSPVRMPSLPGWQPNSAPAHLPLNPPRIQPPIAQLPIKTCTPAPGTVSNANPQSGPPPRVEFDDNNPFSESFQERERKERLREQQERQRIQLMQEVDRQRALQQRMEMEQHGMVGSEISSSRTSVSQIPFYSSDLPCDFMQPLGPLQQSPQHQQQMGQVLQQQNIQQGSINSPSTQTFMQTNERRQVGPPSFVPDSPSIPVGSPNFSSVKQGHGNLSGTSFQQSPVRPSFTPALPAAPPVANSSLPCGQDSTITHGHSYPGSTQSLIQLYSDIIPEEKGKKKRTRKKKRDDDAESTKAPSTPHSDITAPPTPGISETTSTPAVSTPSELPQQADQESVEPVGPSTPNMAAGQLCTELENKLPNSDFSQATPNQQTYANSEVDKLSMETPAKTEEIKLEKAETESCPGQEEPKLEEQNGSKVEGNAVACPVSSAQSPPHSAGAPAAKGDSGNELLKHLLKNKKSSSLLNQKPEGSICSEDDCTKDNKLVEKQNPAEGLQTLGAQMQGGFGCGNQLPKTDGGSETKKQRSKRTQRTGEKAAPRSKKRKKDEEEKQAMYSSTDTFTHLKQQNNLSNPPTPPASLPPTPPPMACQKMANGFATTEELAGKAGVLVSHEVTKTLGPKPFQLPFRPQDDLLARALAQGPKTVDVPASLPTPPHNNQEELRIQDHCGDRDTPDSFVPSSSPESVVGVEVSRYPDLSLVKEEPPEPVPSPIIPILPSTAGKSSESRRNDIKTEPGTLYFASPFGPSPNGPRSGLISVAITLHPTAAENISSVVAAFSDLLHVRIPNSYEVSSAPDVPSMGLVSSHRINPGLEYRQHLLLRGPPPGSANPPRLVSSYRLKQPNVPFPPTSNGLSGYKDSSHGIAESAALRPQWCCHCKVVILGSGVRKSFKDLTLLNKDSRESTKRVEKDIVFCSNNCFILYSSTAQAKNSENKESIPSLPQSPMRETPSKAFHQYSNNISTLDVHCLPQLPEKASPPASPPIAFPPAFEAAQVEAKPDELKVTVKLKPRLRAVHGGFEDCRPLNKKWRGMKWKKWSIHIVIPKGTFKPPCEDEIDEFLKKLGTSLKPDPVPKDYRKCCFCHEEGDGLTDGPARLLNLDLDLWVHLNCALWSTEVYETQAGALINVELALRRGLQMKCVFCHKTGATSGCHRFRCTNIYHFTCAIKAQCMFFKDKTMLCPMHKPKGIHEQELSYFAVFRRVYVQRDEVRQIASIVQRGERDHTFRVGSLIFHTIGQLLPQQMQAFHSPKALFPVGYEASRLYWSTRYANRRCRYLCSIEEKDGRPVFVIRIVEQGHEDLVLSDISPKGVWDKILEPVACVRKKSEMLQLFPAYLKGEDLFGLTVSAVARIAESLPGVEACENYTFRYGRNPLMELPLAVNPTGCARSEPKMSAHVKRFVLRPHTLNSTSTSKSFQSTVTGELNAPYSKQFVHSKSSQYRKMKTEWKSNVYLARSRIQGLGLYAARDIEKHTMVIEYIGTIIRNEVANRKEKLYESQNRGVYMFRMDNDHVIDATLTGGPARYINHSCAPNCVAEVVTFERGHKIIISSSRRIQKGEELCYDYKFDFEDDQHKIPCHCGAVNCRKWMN
UniProt P11142: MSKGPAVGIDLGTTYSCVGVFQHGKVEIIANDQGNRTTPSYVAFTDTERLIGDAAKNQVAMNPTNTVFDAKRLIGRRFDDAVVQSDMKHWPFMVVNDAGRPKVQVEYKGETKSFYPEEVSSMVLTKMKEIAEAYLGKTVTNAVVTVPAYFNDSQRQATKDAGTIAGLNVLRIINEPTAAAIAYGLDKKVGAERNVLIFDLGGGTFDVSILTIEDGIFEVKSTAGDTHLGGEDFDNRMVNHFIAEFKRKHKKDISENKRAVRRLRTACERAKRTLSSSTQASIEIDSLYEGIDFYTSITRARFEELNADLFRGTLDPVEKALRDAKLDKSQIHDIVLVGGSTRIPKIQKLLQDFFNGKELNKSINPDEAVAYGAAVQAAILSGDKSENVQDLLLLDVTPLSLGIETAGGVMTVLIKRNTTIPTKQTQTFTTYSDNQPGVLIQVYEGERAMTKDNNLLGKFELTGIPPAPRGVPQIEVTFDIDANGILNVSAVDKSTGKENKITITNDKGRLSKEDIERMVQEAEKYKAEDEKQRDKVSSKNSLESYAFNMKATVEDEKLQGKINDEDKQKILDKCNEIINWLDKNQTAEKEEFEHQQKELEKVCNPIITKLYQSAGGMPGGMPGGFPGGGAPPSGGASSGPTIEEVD
UniProt O95816: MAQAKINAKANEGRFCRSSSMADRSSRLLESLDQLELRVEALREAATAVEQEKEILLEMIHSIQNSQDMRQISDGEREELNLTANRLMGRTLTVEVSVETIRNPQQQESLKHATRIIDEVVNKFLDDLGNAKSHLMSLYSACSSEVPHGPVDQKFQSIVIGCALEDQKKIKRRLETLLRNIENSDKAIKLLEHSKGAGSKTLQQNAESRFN
UniProt Q9UNE7: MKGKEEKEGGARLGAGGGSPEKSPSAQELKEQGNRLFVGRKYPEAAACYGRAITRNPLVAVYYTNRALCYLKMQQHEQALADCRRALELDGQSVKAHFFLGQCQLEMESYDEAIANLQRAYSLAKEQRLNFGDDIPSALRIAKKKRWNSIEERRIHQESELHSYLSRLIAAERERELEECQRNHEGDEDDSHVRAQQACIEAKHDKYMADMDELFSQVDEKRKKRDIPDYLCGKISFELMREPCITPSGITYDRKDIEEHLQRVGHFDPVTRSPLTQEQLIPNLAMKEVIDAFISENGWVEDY

Columns and labels:
Experiment in all cases: co-IP; HEK293T and TNBC cells transfected with the indicated expression vectors or expressing HA-SCRN2; NP40 lysis buffer; extracts immunoprecipitated with the indicated antibodies at 4 °C overnight, washed thrice, immunoblotting; Figure 2L with or without serum starvation for 24 h; Figure 4M with SCRN2 co-expressed
[1] = molecular target: HA-SCRN2 (secernin-2) (human) (UniProt Q96FV2)
[2] = molecular target: Histone-lysine N-methyltransferase 2C (KMT2C) (human) (UniProt Q8NEZ4)
[3] = molecular target: HSPA8 (heat shock protein family A member 8) (human (endogenous in HEK293T)) (UniProt P11142)

**Q.** Which binding [1] does the source give for “BAG family molecular chaperone regulator 2 (BAG2) (from UniProt O95816 1-211)” here?
**A.** binds

**Q.** Which binding [1] does the source give for “HSPA8 (heat shock protein family A member 8) (from UniProt P11142 1-646)” here?
**A.** binds

**Q.** “E3 ubiquitin-protein ligase CHIP (from UniProt Q9UNE7 1-303) (enzyme)” was tested. Which binding [2] did it give?
**A.** binds

**Q.** Which binding [3] does the source give for “HA-SCRN2 (secernin-2) (from UniProt Q96FV2 1-425)” here?
**A.** binds
